# No constants are given. Whether binding was seen depends on the method and setting. In cells and extracts the contact can be indirect. These calls come from enrichment with a bait or labelling near it, and not all partners need be listed.
# Sequences of proteins named here, by UniProt entry; tags and fusion partners are left off.
# UniProt Q15004: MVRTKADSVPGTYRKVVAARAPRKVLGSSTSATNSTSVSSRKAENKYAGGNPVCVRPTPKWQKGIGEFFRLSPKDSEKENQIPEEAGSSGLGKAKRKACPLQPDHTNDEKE
# B1: ADGRL2 (adhesion Class G-protein-coupled receptor, formerly termed latrophilin 2), endogenous in bone marrow adipocytes (receptor, UniProt Q8JZZ7 26-1487)
# chain: FSRAALPFGLVRRELSCEGYSIDLRCPGSDVIMIESANYGRTDDKICDADPFQMENTDCYLPDAFKIMTQRCNNRTQCIVVTGSDVFPDPCPGTYKYLEVQYECVPYSKMLVFVCPGTLKAIVDSPCIYEAEQKSGAWCKDPLQAADKIYFMPWTPYRTDTLIEYASLEDFQNSRQTTTYKLPNRVDGTGFVVYDGAVFFNKERTRNIVKFDLRTRIKSGEAIINYANYHDTSPYRWGGKTDIDLAVDENGLWVIYATEQNNGMIVISQLNPYTLRFEATWETAYDKRAASNAFMICGVLYVVRSVYQDNESEAGKNTIDYIYNTRLSRGEYVDVPFPNQYQYIAAVDYNPRDNQLYVWNNNFILRYSLEFGPPDPAQVPTTAVTITSSAELFKTTISTTSSASQRGPVSSTAAGPQDGSRGTKPPPAVSTTKIPPVTNIFPLPERFCEALDWKGIKWPQTQRGMMVERPCPKGTRGTASYLCMASTGTWNPKGPDLSNCTSHWVNQLAQKIRSGENAASLANELAKHTKGHVFAGDVSSSVRLMEQLVDILDAQLQELKPSEKDSAGRSYNKLQKREKTCRAYLKAIVDTVDNLLRAEALESWKHMNSSEQAHTATMLLDTLEEGAFVLADNLLEPTRVSMPTENIVLEVAVLSTEGQVQDFKFPLGLKGLGSSIQLSANTVKQNSRNGLAKLVFIIYRSLGQFLSTENATIKLGADLMGRNSTIAVNSPVISVSINKESSRVYLTDPVLFTLPHIDPDNYFNANCSFWNYSERTMMGYWSTQGCKLVDTNKTRTTCACSHLTNFAILMAHREIAYKDGVHHLLLTVITWVGIVVSLVCLAICIFTFCFFRGLQSDRNTIHKNLCINLFIAEFIFLIGIDKTKYTIACPVFAGLLHFFFLAAFSWMCLEGVQLYLMLVEVFESEYSRKKYYYVAGYLFPATVVGVSAAIDYKSYGTVQACWLHVDNYFIWSFIGPVTFIILLNIIFLVITLCKMVKHSNTLKPDSSRLENINNYRVCDGYYNTDLPGYEDNKPFIKSWVLGAFALLCLLGLTWSFGLLFVNEETVVMAYLFTAFNAFQGLFIFIFHCALQKKVRKEYGKCFRHWYCCGGLPTESPHSSVKASTTRTSARYSSGTQSRIRRMWNDTVRKQSESSFISGDINSTSTLNQGMTGNYLLTNPLLRPHGTNNPYNTLLAETVVCNAPSAPAFNSPGHSLNNARDTSAMDTLPLNGNFNNSYSLRKADYHDGVQVVDCGLSLNDTAFEKMIISELVHNNLRGGNKTHNLELKLPVKPVIGGSSSEDDAIVADASSLMHGDNPGLEFRHKELEAPLIPQRTHSLLYQPQKKVKPEATDSYVSQLTAEADDHLQSPNRDSLYTSMPNLRDSPYPESSPDMAEDLSPSRRSENEDIYYKSMPNLGAGRHLHMCYQISRGNSDGYIIPINKEGCIPEGDVREGQMQLVTSL
# Target: Human recombinant PCLAF (PCNA clamp-associated factor), His-labeled (human) (UniProt Q15004)
# Assay: affinity purification with mass spectrometry; membrane protein extract of bone marrow adipocytes incubated with His-labeled rPCLAF and His antibody overnight at 4 °C; Protein A/G magnetic beads 2 h at room temperature; SDS-PAGE, then MS; only the target purified
binder,measurement,value
B1,binding,binds

# Reference: paper PMC11222446
